The results are deposited in PubChem (AID1508628; NCATS, 2021).

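Release of a luciferase ER-calcium reporter from SH-SY5Y cells after thapsigargin-induced ER calcium loss, read by luminescence following overnight compound exposure. A concentration series was tested, mostly reaching about 76 µM. Potency is the concentration giving half of the fitted maximal drop in reporter secretion; lower values mean stronger potency. Calls come from fitted curve class and an activity score, where scores of 1 to 39 are filed as inconclusive.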

Values are in µM. All entries here are filed as inconclusive. Only part of the assay is shown, chiefly results filed as inconclusive. A potency from a partial, single-point or poor curve is only a rough figure. Some entries filed as inconclusive have a full curve. Activity scores are not listed here. An entry listed twice with the same setting is a separate test.

Result for O=C(O)c1cc[c]([Hg][Cl])cc1 was potency 22.39 µM (inhibitor, partial curve). COc1ccc(Oc2ncc3nc(-c4cccs4)c(=O)n(CCC#N)c3n2)cc1 read potency 25.12 µM (inhibitor, partial curve, poor fit). With C[C@@H]([C@H](O)c1ccc(O)cc1)N1CCC(Cc2ccccc2)CC1 the assay gave potency 14.13 µM (inhibitor, full curve). Result for CN(C)C1CCc2[nH]c3ccc(NC(=O)c4ccc(F)cc4)cc3c2C1 (stereo not given) was potency 25.12 µM (inhibitor, partial curve). With COCCn1c(=O)c(-c2cc(F)cc(F)c2)nc2cnc(N3CCNCC3)nc21 the assay gave potency 15.85 µM (inhibitor, full curve).

O=C(c1ccc(Cl)cc1)N1CCN(c2ccc([N+](=O)[O-])c3ncccc23)CC1 read potency 28.18 µM (inhibitor, full curve). For Fc1ccc(C(OCCN2CCN(C/C=C/c3ccccc3)CC2)c2ccc(F)cc2)cc1 the result was potency 10 µM (inhibitor, full curve, poor fit). Result for c1ccc(N2CCC3(CCNCC3)CC2)nc1 was potency 35.48 µM (inhibitor, partial curve, poor fit). Result for CN1C2CCC1CC(OC(c1ccccc1)c1ccccc1)C2 (stereo not given) was potency 6.31 µM (inhibitor, full curve). Result for CN(C)CCCN1c2ccccc2CCc2ccccc21 was potency 19.95 µM (inhibitor, full curve).

CC(=O)C1=C(O)[C@@H]2[C@@H]3c4c[nH]c5cccc(c45)C[C@@H]3C(C)(C)N2C1=O read potency 1.995 µM (inhibitor, full curve). With N=C1N=C(N)c2cc3ccccc3cc21 the assay gave potency 10 µM (inhibitor, full curve). With c1ccc2c(N3CCNCC3)cccc2c1 the assay gave potency 2.818 µM (inhibitor, full curve). Result for O=C1NC(c2cccc([N+](=O)[O-])c2)=CCN1c1ccccc1O was potency 1.259 µM (inhibitor, full curve). Result for COc1ccc(-n2c(=O)c(-c3ccccc3)nc3cnc(N4CCNCC4)nc32)cc1 was potency 39.81 µM (inhibitor, partial curve).

Result for O=C1OC2(c3ccccc31)c1cc(I)c(O)c(I)c1Oc1c2cc(I)c(O)c1I was potency 31.62 µM (inhibitor, partial curve). CN1CC[C@@H]2CN3CCc4cccc(c43)[C@H]2C1 gave potency 12.59 µM (inhibitor, full curve). For COc1ccc(Oc2ncc3nc(CCc4ccccc4)c(=O)n(C[C@H]4CCCO4)c3n2)cc1 the result was potency 44.67 µM (inhibitor, partial curve, poor fit). CSc1ccccc1N1CCN(CCCCCC(=O)NC2CCCc3ccccc32)CC1 (stereo not given) read potency 6.31 µM (inhibitor, full curve). NC1CCc2cc(O)c(O)cc2C1 (stereo not given) gave potency 4.467 µM (inhibitor, partial curve, poor fit).

With CCCCNc1ccc(C(=O)OCCN(C)C)cc1 the assay gave potency 4.467 µM (inhibitor, full curve). For CN(C)CC[C@@H](c1ccc(Br)cc1)c1ccccn1 the result was potency 70.79 µM (inhibitor, single point). For FC(F)(F)c1ccccc1-c1nc(NC2CCNCC2)c2ccccc2n1 the result was potency 11.22 µM (inhibitor, full curve). Result for Cc1nc2sccn2c(=O)c1CCN1CCC(=C(c2ccc(F)cc2)c2ccc(F)cc2)CC1 was potency 39.81 µM (inhibitor, partial curve). Cc1ccc(C(=O)Nc2ccc(S(=O)(=O)O)c3cc(S(=O)(=O)O)cc(S(=O)(=O)O)c23)cc1NC(=O)c1cccc(NC(=O)Nc2cccc(C(=O)Nc3cc(C(=O)Nc4ccc(S(=O)(=O)O)c5cc(S(=O)(=O)O)cc(S(=O)(=O)O)c45)ccc3C)c2)c1 gave potency 39.81 µM (inhibitor, partial curve).

O=C(Nc1ccc(Oc2ccc(Cl)cc2)c(Cl)c1)c1cc(I)cc(I)c1O gave potency 44.67 µM (inhibitor, partial curve). Result for CN(C)C/C=C(/c1ccc(Br)cc1)c1cccnc1 was potency 39.81 µM (inhibitor, partial curve, poor fit). COc1cc2ncnc(Nc3ccc(F)c(Cl)c3)c2cc1OCCCN1CCOCC1 gave potency 7.943 µM (inhibitor, full curve, poor fit). Result for O[Si](CCCN1CCCCC1)(c1ccc(F)cc1)C1CCCCC1 (stereo not given) was potency 7.943 µM (inhibitor, full curve, poor fit). Result for CN(C)CCCN1c2ccccc2CCc2ccccc21 was potency 25.12 µM (inhibitor, full curve).

COc1cccc(Cn2c(=O)c(-c3ccccc3)nc3cnc(N4CCNCC4)nc32)c1 read potency 19.95 µM (inhibitor, full curve). For COc1cc(N)c(Cl)cc1C(=O)N[C@H]1CCN(CCCOc2ccc(F)cc2)C[C@@H]1OC the result was potency 14.13 µM (inhibitor, full curve).

Once more, the final 3:

- CN(C)CCCN1c2ccccc2CCc2ccccc21 | potency 25.12 µM (inhibitor, full curve)
- COc1cccc(Cn2c(=O)c(-c3ccccc3)nc3cnc(N4CCNCC4)nc32)c1 | potency 19.95 µM (inhibitor, full curve)
- COc1cc(N)c(Cl)cc1C(=O)N[C@H]1CCN(CCCOc2ccc(F)cc2)C[C@@H]1OC | potency 14.13 µM (inhibitor, full curve)